± gives the standard deviation of the averaged measurements. Some of the results follow. Only hits are listed; about a third recur on repeated control peptides.
How the values were obtained:
Experiment in all cases: PRISMA enrichment of interactor (LFQ) in peptide spot vs all other peptide spots (log2 fold change); higher = stronger / more specific binding of the interactor to the peptide
ABCE1, P61221 = molecular target: ABCE1, P61221
Procedure: (§1)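 PRISMA: 15-aa overlapping tiles (offset 8 aa) of 60 microproteins, plus SOS1/GLUT1 control peptides, were spot-synthesized on cellulose membranes in triplicate. Membranes were incubated with benzonase-treated HEK293T lysate, and bound proteins were identified by LC-MS/MS with LFQ. Enrichment is the log2 fold change of each protein in one spot versus all other spots. Only interactors passing the significance cutoff are listed.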

Amino acid sequences for entries named in this document (tags omitted).
AP2A2, O94973, UniProt O94973, whole entry: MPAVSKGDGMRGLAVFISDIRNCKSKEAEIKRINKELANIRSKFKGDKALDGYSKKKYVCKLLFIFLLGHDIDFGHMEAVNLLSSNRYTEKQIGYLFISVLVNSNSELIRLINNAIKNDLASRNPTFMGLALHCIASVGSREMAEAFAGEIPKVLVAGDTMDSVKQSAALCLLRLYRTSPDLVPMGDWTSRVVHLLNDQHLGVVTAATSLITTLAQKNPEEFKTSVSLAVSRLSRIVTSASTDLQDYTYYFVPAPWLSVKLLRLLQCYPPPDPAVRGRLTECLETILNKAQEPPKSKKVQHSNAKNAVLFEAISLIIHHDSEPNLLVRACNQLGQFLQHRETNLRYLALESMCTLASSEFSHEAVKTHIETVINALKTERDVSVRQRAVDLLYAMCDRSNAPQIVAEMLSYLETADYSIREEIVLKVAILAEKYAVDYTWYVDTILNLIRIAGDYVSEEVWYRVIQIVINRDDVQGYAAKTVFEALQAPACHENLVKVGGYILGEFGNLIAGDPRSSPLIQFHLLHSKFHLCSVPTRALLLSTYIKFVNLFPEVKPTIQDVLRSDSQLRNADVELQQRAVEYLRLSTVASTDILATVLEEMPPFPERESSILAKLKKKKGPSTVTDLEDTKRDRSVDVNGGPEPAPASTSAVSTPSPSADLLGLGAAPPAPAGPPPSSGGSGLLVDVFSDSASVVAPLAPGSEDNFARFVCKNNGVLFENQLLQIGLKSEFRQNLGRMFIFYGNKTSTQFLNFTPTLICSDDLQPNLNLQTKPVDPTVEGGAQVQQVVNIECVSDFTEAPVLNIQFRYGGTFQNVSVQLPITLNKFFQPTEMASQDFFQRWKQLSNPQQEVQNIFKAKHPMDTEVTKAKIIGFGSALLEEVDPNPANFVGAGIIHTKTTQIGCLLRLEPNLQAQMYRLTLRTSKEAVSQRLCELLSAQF
HIST1H1D, P16402, UniProt P16402, whole entry: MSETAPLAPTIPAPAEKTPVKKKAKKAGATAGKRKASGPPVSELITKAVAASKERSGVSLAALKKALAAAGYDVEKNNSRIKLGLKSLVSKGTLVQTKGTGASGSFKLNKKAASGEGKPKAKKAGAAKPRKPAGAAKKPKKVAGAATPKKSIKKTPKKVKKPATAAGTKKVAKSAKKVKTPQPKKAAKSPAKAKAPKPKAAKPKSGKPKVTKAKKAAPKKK
MORF4L2, Q15014, UniProt Q15014, whole entry: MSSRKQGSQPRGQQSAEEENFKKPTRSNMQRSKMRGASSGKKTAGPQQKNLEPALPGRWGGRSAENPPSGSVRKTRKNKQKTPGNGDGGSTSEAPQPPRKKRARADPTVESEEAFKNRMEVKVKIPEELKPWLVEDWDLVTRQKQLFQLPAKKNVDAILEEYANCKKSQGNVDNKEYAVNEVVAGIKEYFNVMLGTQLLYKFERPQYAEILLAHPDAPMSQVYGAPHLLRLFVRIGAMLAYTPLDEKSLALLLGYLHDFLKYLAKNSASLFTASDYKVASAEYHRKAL
CALR, P27797, UniProt P27797, whole entry: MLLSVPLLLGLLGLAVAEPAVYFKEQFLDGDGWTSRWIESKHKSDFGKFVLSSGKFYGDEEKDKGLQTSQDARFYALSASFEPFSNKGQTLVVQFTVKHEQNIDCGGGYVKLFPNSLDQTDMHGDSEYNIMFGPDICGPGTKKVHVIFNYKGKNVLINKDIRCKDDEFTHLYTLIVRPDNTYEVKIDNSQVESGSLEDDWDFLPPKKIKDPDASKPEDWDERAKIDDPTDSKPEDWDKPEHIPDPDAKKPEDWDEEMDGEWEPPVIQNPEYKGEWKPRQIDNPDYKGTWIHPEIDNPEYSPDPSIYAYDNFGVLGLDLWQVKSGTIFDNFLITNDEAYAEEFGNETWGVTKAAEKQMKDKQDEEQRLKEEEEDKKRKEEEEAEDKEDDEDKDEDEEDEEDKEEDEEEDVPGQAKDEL

ACOT13, Q9NPJ3 = molecular target: ACOT13, Q9NPJ3
Procedure: as §1

ALYREF, Q86V81 = molecular target: ALYREF, Q86V81
Procedure: as §1

AP2A2, O94973 = molecular target: AP2A2, O94973
Procedure: as §1

AP3M1, Q9Y2T2 = molecular target: AP3M1, Q9Y2T2
Procedure: as §1

BCKDK, O14874 = molecular target: BCKDK, O14874
Procedure: as §1

C11orf98, E9PRG8 = molecular target: C11orf98, E9PRG8
Procedure: as §1

C19orf53, Q9UNZ5 = molecular target: C19orf53, Q9UNZ5
Procedure: as §1

C8orf33, Q9H7E9 = molecular target: C8orf33, Q9H7E9
Procedure: as §1

CCDC137, Q6PK04 = molecular target: CCDC137, Q6PK04
Procedure: as §1

CCDC59, Q9P031 = molecular target: CCDC59, Q9P031
Procedure: as §1

CFAP20, Q9Y6A4 = molecular target: CFAP20, Q9Y6A4
Procedure: as §1

CHID1, Q9BWS9 = molecular target: CHID1, Q9BWS9
Procedure: as §1

CHTOP, Q9Y3Y2 = molecular target: CHTOP, Q9Y3Y2
Procedure: as §1

COA7, Q96BR5 = molecular target: COA7, Q96BR5
Procedure: as §1

CRIPT, Q9P021 = molecular target: CRIPT, Q9P021
Procedure: as §1

CSNK1A1, P48729 = molecular target: CSNK1A1, P48729
Procedure: as §1

CSNK1E, P49674 = molecular target: CSNK1E, P49674
Procedure: as §1

CXorf56, Q9H5V9 = molecular target: CXorf56, Q9H5V9
Procedure: as §1

DARS2, Q6PI48 = molecular target: DARS2, Q6PI48
Procedure: as §1

DDX47, Q9H0S4 = molecular target: DDX47, Q9H0S4
Procedure: as §1

DDX49, Q9Y6V7 = molecular target: DDX49, Q9Y6V7
Procedure: as §1

DDX6, P26196 = molecular target: DDX6, P26196
Procedure: as §1

DECR1, Q16698 = molecular target: DECR1, Q16698
Procedure: as §1

ECHS1, P30084 = molecular target: ECHS1, P30084
Procedure: as §1

EDF1, O60869 = molecular target: EDF1, O60869
Procedure: as §1

EEF1A2, Q05639 = molecular target: EEF1A2, Q05639
Procedure: as §1

EEFSEC, P57772 = molecular target: EEFSEC, P57772
Procedure: as §1

EHHADH, Q08426 = molecular target: EHHADH, Q08426
Procedure: as §1

EIF1, P41567 = molecular target: EIF1, P41567
Procedure: as §1

EMG1, Q92979 = molecular target: EMG1, Q92979
Procedure: as §1

FAM136A, Q96C01 = molecular target: FAM136A, Q96C01
Procedure: as §1

FKBP2, P26885 = molecular target: FKBP2, P26885
Procedure: as §1

FKBP3, Q00688 = molecular target: FKBP3, Q00688
Procedure: as §1

GABARAPL2, P60520 = molecular target: GABARAPL2, P60520
Procedure: as §1

H1F0, P07305 = molecular target: H1F0, P07305
Procedure: as §1

H1FX, Q92522 = molecular target: H1FX, Q92522
Procedure: as §1

HIST1H1C, P16403 = molecular target: HIST1H1C, P16403
Procedure: as §1

HIST1H1D, P16402 = molecular target: HIST1H1D, P16402
Procedure: as §1

HMGA1, P17096 = molecular target: HMGA1, P17096
Procedure: as §1

HMGB1, P09429 = molecular target: HMGB1, P09429
Procedure: as §1

HMGB2, P26583 = molecular target: HMGB2, P26583
Procedure: as §1

HMGB3, O15347 = molecular target: HMGB3, O15347
Procedure: as §1

HMGN1, P05114 = molecular target: HMGN1, P05114
Procedure: as §1

HMGN4, O00479 = molecular target: HMGN4, O00479
Procedure: as §1

HNRNPA1, P09651 = molecular target: HNRNPA1, P09651
Procedure: as §1

HNRNPA2B1, P22626 = molecular target: HNRNPA2B1, P22626
Procedure: as §1

HP1BP3, Q5SSJ5 = molecular target: HP1BP3, Q5SSJ5
Procedure: as §1

IBA57, Q5T440 = molecular target: IBA57, Q5T440
Procedure: as §1

KHDRBS1, Q07666 = molecular target: KHDRBS1, Q07666
Procedure: as §1

LRRC59, Q96AG4 = molecular target: LRRC59, Q96AG4
Procedure: as §1

MANF, P55145 = molecular target: MANF, P55145
Procedure: as §1

MAP4, P27816 = molecular target: MAP4, P27816
Procedure: as §1

MCAT, Q8IVS2 = molecular target: MCAT, Q8IVS2
Procedure: as §1

MEMO1, Q9Y316 = molecular target: MEMO1, Q9Y316
Procedure: as §1

MORF4L2, Q15014 = molecular target: MORF4L2, Q15014
Procedure: as §1

MPG, P29372 = molecular target: MPG, P29372
Procedure: as §1

MRPS33, Q9Y291 = molecular target: MRPS33, Q9Y291
Procedure: as §1

MRRF, Q96E11 = molecular target: MRRF, Q96E11
Procedure: as §1

NAT10, Q9H0A0 = molecular target: NAT10, Q9H0A0
Procedure: as §1

AHCY, P23526 = molecular target: AHCY, P23526
Procedure: as §1

ATXN10, Q9UBB4 = molecular target: ATXN10, Q9UBB4
Procedure: as §1

CALR, P27797 = molecular target: CALR, P27797
Procedure: as §1

CYC1, P08574 = molecular target: CYC1, P08574
Procedure: as §1

DCAF16, Q9NXF7 = molecular target: DCAF16, Q9NXF7
Procedure: as §1

DHX33, Q9H6R0 = molecular target: DHX33, Q9H6R0
Procedure: as §1

GATAD2A, Q86YP4 = molecular target: GATAD2A, Q86YP4
Procedure: as §1

GMNN, O75496 = molecular target: GMNN, O75496
Procedure: as §1

HSPH1, Q92598 = molecular target: HSPH1, Q92598
Procedure: as §1

ILVBL, A1L0T0 = molecular target: ILVBL, A1L0T0
Procedure: as §1

MRPL48, Q96GC5 = molecular target: MRPL48, Q96GC5
Procedure: as §1

NCAPG, Q9BPX3 = molecular target: NCAPG, Q9BPX3
Procedure: as §1

NELFA, Q9H3P2 = molecular target: NELFA, Q9H3P2
Procedure: as §1

PFN1, P07737 = molecular target: PFN1, P07737
Procedure: as §1

PPP1CC, P36873 = molecular target: PPP1CC, P36873
Procedure: as §1

UQCRFS1, P47985 = molecular target: UQCRFS1, P47985
Procedure: as §1

YWLLEGGDSEDKEDA [CRNDE]
PRISMA enrichment of interactor (log2) (ABCE1, P61221): 4.19
PRISMA enrichment of interactor (log2) (ACOT13, Q9NPJ3): 4.45
PRISMA enrichment of interactor (log2) (ALYREF, Q86V81): 4.3 ± 0.59
PRISMA enrichment of interactor (log2) (AP2A2, O94973): 4.14
PRISMA enrichment of interactor (log2) (AP3M1, Q9Y2T2): 3.78
PRISMA enrichment of interactor (log2) (BCKDK, O14874): 3.91
PRISMA enrichment of interactor (log2) (C11orf98, E9PRG8): 4.61
PRISMA enrichment of interactor (log2) (C19orf53, Q9UNZ5): 7.79
PRISMA enrichment of interactor (log2) (C8orf33, Q9H7E9): 4.22
PRISMA enrichment of interactor (log2) (CCDC137, Q6PK04): 3.98
PRISMA enrichment of interactor (log2) (CCDC59, Q9P031): 3.82
PRISMA enrichment of interactor (log2) (CFAP20, Q9Y6A4): 4.15
PRISMA enrichment of interactor (log2) (CHID1, Q9BWS9): 4.18
PRISMA enrichment of interactor (log2) (CHTOP, Q9Y3Y2): 4.13
PRISMA enrichment of interactor (log2) (COA7, Q96BR5): 3.9
PRISMA enrichment of interactor (log2) (CRIPT, Q9P021): 4.83
PRISMA enrichment of interactor (log2) (CSNK1A1, P48729): 5.75
PRISMA enrichment of interactor (log2) (CSNK1E, P49674): 5.04
PRISMA enrichment of interactor (log2) (CXorf56, Q9H5V9): 5.26
PRISMA enrichment of interactor (log2) (DARS2, Q6PI48): 3.7
PRISMA enrichment of interactor (log2) (DDX47, Q9H0S4): 4.02
PRISMA enrichment of interactor (log2) (DDX49, Q9Y6V7): 3.87
PRISMA enrichment of interactor (log2) (DDX6, P26196): 4.2
PRISMA enrichment of interactor (log2) (DECR1, Q16698): 4.27
PRISMA enrichment of interactor (log2) (ECHS1, P30084): 8.98
PRISMA enrichment of interactor (log2) (EDF1, O60869): 5.55
PRISMA enrichment of interactor (log2) (EEF1A2, Q05639): 5.57
PRISMA enrichment of interactor (log2) (EEFSEC, P57772): 3.8
PRISMA enrichment of interactor (log2) (EHHADH, Q08426): 4.32
PRISMA enrichment of interactor (log2) (EIF1, P41567): 4.57
PRISMA enrichment of interactor (log2) (EMG1, Q92979): 4.71
PRISMA enrichment of interactor (log2) (FAM136A, Q96C01): 3.62
PRISMA enrichment of interactor (log2) (FKBP2, P26885): 5.6
PRISMA enrichment of interactor (log2) (FKBP3, Q00688): 3.78
PRISMA enrichment of interactor (log2) (GABARAPL2, P60520): 4.34
PRISMA enrichment of interactor (log2) (H1F0, P07305): 3.9
PRISMA enrichment of interactor (log2) (H1FX, Q92522): 5.33
PRISMA enrichment of interactor (log2) (HIST1H1C, P16403): 5.32
PRISMA enrichment of interactor (log2) (HIST1H1D, P16402): 6.17
PRISMA enrichment of interactor (log2) (HMGA1, P17096): 4.08
PRISMA enrichment of interactor (log2) (HMGB1, P09429): 5
PRISMA enrichment of interactor (log2) (HMGB2, P26583): 6.46
PRISMA enrichment of interactor (log2) (HMGB3, O15347): 4.03
PRISMA enrichment of interactor (log2) (HMGN1, P05114): 3.9
PRISMA enrichment of interactor (log2) (HMGN4, O00479): 5.46
PRISMA enrichment of interactor (log2) (HNRNPA1, P09651): 3.65
PRISMA enrichment of interactor (log2) (HNRNPA2B1, P22626): 3.23
PRISMA enrichment of interactor (log2) (HP1BP3, Q5SSJ5): 4.11
PRISMA enrichment of interactor (log2) (IBA57, Q5T440): 4.85
PRISMA enrichment of interactor (log2) (KHDRBS1, Q07666): 5.53
PRISMA enrichment of interactor (log2) (LRRC59, Q96AG4): 4.18
PRISMA enrichment of interactor (log2) (MANF, P55145): 4.64
PRISMA enrichment of interactor (log2) (MAP4, P27816): 4.77
PRISMA enrichment of interactor (log2) (MCAT, Q8IVS2): 3.87
PRISMA enrichment of interactor (log2) (MEMO1, Q9Y316): 4.61
PRISMA enrichment of interactor (log2) (MORF4L2, Q15014): 4.97
PRISMA enrichment of interactor (log2) (MPG, P29372): 3.98
PRISMA enrichment of interactor (log2) (MRPS33, Q9Y291): 3.59
PRISMA enrichment of interactor (log2) (MRRF, Q96E11): 5.16
PRISMA enrichment of interactor (log2) (NAT10, Q9H0A0): 3.45

VRRWAAAAARSSLRS [PARL]
PRISMA enrichment of interactor (log2) (ABCE1, P61221): 4.58
PRISMA enrichment of interactor (log2) (AHCY, P23526): 5.62
PRISMA enrichment of interactor (log2) (ATXN10, Q9UBB4): 5.77
PRISMA enrichment of interactor (log2) (CALR, P27797): 6.61
PRISMA enrichment of interactor (log2) (CYC1, P08574): 6.23
PRISMA enrichment of interactor (log2) (DCAF16, Q9NXF7): 3.88
PRISMA enrichment of interactor (log2) (DHX33, Q9H6R0): 4.53
PRISMA enrichment of interactor (log2) (GATAD2A, Q86YP4): 7.11
PRISMA enrichment of interactor (log2) (GMNN, O75496): 6.03
PRISMA enrichment of interactor (log2) (HSPH1, Q92598): 4.54
PRISMA enrichment of interactor (log2) (ILVBL, A1L0T0): 3.78
PRISMA enrichment of interactor (log2) (MRPL48, Q96GC5): 3.92
PRISMA enrichment of interactor (log2) (NCAPG, Q9BPX3): 4.4
PRISMA enrichment of interactor (log2) (NELFA, Q9H3P2): 3.92
PRISMA enrichment of interactor (log2) (PFN1, P07737): 4.66
PRISMA enrichment of interactor (log2) (PPP1CC, P36873): 4.31
PRISMA enrichment of interactor (log2) (UQCRFS1, P47985): 6.34

— the supplement of paper PMC10032668
